TEAD-luciferase reporter activity data for 16 compounds are collected here from the supplement of paper PMC10735217.

For the experiment, the system named is HEK293A TEAD-LUC reporter. In words: TEAD-luciferase reporter activity (YAP activation), robust Z score vs plate; higher = stronger YAP/TEAD activation. Particulars: 24 h.

Some of the results follow. Repeats in this data set agree poorly, so a single value says little.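 In a drug-repurposing library screen, luminescence reads luciferase driven by eight TEAD-binding elements, stably integrated into human kidney-derived cells. Compounds scoring over five robust Z scores above the plate mean are called hits.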

Turning to `CCn1cc(C(=O)NCCCO)c(=O)c2ccccc21`, the TEAD-luciferase reporter activity is active: 7.46 (compound concentration: 200 nM), inactive: 1.44 (compound concentration: 2 uM) and inactive: 0.102 (compound concentration: 10 uM).

With `CC(=O)N1CCC2(CC1)CN(C(=O)C1CCN(C)CC1)Cc1ccccc1O2`, the TEAD-luciferase reporter activity is, setting by setting: (compound concentration: 200 nM) inactive: -1.17; (compound concentration: 10 uM) inactive: 1.39.

Regarding `Clc1cnn(CCCCN2CCN(c3ncccn3)CC2)c1`, the TEAD-luciferase reporter activity runs as follows: (compound concentration: 200 nM) inactive: -0.235; (compound concentration: 2 uM) inactive: -0.268; (compound concentration: 10 uM) inactive: 4.42.

On to `N#Cc1cccc(CN2CCCC23Cc2ccccc2CNC3=O)c1` (stereo not given), for which the TEAD-luciferase reporter activity is, setting by setting: (compound concentration: 200 nM) inactive: -1.61; (compound concentration: 10 uM) inactive: -1.35.

For `CCCCOC(=O)[C@@H](O)CN(CC(C)C)C(=O)N[C@@H](Cc1ccc2ccccc2c1)C(=O)O`, the TEAD-luciferase reporter activity reads like this: (compound concentration: 200 nM) inactive: 0.369; (compound concentration: 2 uM) inactive: -0.926; (compound concentration: 10 uM) inactive: -0.0821.

Consider `N=C(N)NCCC[C@@H](NC(=O)[C@@H](Cc1ccc(-c2ccccc2)cc1)NC(=O)[C@H](N)CCC(=O)O)C(=O)O`, for which the TEAD-luciferase reporter activity runs as follows: (compound concentration: 200 nM) inactive: -0.443; (compound concentration: 2 uM) inactive: -0.634; (compound concentration: 10 uM) inactive: 1.49.

With `Cc1ccc(C(=O)CC(c2ccccc2)S(=O)(=O)c2ccccc2)cc1` (stereo not given), the TEAD-luciferase reporter activity runs as follows: (compound concentration: 200 nM) inactive: -1.13; (compound concentration: 2 uM) inactive: 1.27; (compound concentration: 10 uM) inactive: 1.04.

Regarding `O=C1N(CCN2CCC3(CC2)OCCO3)CCN1c1cc(Cl)cc(Cl)c1`, the TEAD-luciferase reporter activity (compound concentration: 200 nM) is inactive: 0.72, the TEAD-luciferase reporter activity (compound concentration: 2 uM) is inactive: -0.352 and the TEAD-luciferase reporter activity (compound concentration: 10 uM) is inactive: -0.0468.

Take `O=C(O)CCCCCCNC(=O)C(CS)Cc1ccccc1` (stereo not given): the TEAD-luciferase reporter activity is, setting by setting: (compound concentration: 200 nM) inactive: -0.959; (compound concentration: 2 uM) inactive: -0.411; (compound concentration: 10 uM) inactive: -1.29.

With `C[C@]12CCC(=O)C=C1CC[C@@H]1[C@@H]2[C@@H](O)C[C@@]2(C)[C@H]1CC[C@]2(O)C(=O)CO`, the TEAD-luciferase reporter activity reads like this: (compound concentration: 200 nM) inactive: 0.155; (compound concentration: 10 uM) inactive: 4.3.

For the compound `CCCCCCCC/C=C\CCCCCCCC(=O)OCC(O)CO` (stereo not given) [2,3-Dihydroxypropyl oleate], the TEAD-luciferase reporter activity was inactive: 1.21 (compound concentration: 200 nM), inactive: -0.448 (compound concentration: 2 uM) and inactive: -0.93 (compound concentration: 10 uM).

As for `O=C(c1ccccc1)c1ccc2n1CCC2C(=O)OCCCCO[N+](=O)[O-]` (stereo not given), the TEAD-luciferase reporter activity by setting is: (compound concentration: 200 nM) inactive: -0.809; (compound concentration: 2 uM) inactive: 0.267; (compound concentration: 10 uM) inactive: -0.528.

Regarding `Cc1ccc2c(c1)c1c(n2CCc2ccncc2)CCN(C)C1`, the TEAD-luciferase reporter activity reads like this: (compound concentration: 200 nM) inactive: -0.121; (compound concentration: 2 uM) inactive: -1.65; (compound concentration: 10 uM) inactive: 1.82.

Consider `N=C(N)NCCC[C@H](NC(=O)[C@@H]1CCCN1C(=O)[C@H](N)Cc1ccccc1)C(=O)CCl`, for which the TEAD-luciferase reporter activity runs as follows: (compound concentration: 200 nM) inactive: -1.82; (compound concentration: 2 uM) inactive: -1.43; (compound concentration: 10 uM) inactive: -1.55.

With `COC(=O)C1=C(C)NC(C)=C(C(=O)OC)C1c1cc([N+](=O)[O-])ccc1OCCCCNC[C@H](O)COc1ccccc1`, the TEAD-luciferase reporter activity runs as follows: (compound concentration: 200 nM) inactive: -0.768; (compound concentration: 2 uM) inactive: -1.3; (compound concentration: 10 uM) inactive: -1.06.

For the compound `COc1ccc(NC(=O)Nc2ccc(F)cc2F)cc1-c1c(Br)cnn1C` [nelotanserin], the TEAD-luciferase reporter activity by setting is: (compound concentration: 200 nM) inactive: 0.501; (compound concentration: 2 uM) inactive: -1.67; (compound concentration: 10 uM) inactive: -1.28.
